In the supplement of paper PMC9254222:
Structures can show the parent of a compound that is named as a salt. Over roughly 1,100 compounds, “Wnt reporter firefly/Renilla luciferase ratio relative to plate median” has its median near 1.1; the highest 2% begin near 1.6. The entries are a selection whose mix differs from that of the whole data set.

Tested on: HEK293T (UBE3A T485A transfected, BAR Wnt reporter)
Test: Wnt reporter firefly/Renilla luciferase ratio relative to plate median (fold (linear ratio)); higher = more Wnt/beta-catenin reporter activation
Conditions: 24 h
How it was run: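 Using Fugene 6, HEK293T cells in white 384-well plates (4500 cells/well; DMEM, 10% FBS, 37°C, 5% CO2) were transfected with a BAR firefly luciferase Wnt reporter, TK-Renilla and an expression plasmid. After four hours, robots dosed the chemicals at 0.01–100 uM, and a Dual-Glo luciferase readout followed 24 h later. Per-plate median-centred firefly/Renilla ratios gave Wnt activity, while per-plate median-centred raw Renilla signals gave cell health. Four biological replicates were averaged.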

SMILES: CCOCN(C(=O)CCl)c1c(C)cccc1CC [Acetochlor]
- Wnt reporter firefly/Renilla luciferase ratio (concentration: 0.01 uM): 0.848
- Wnt reporter firefly/Renilla luciferase ratio (concentration: 0.1 uM): 1.1
- Wnt reporter firefly/Renilla luciferase ratio (concentration: 1 uM): 0.966
- Wnt reporter firefly/Renilla luciferase ratio (concentration: 10 uM): 0.935
- Wnt reporter firefly/Renilla luciferase ratio (concentration: 100 uM): 0.781

SMILES: CCOS(=O)(=O)OCC [Diethyl sulfate]
- Wnt reporter firefly/Renilla luciferase ratio (concentration: 0.1 uM): 0.936
- Wnt reporter firefly/Renilla luciferase ratio (concentration: 1 uM): 1
- Wnt reporter firefly/Renilla luciferase ratio (concentration: 10 uM): 1.14
- Wnt reporter firefly/Renilla luciferase ratio (concentration: 100 uM): 1.53

SMILES: CCc1cnc(C2=NC(C)(C(C)C)C(=O)N2)c(C(=O)O)c1 (stereo not given) [Imazethapyr]
- Wnt reporter firefly/Renilla luciferase ratio (concentration: 0.01 uM): 1.15
- Wnt reporter firefly/Renilla luciferase ratio (concentration: 0.1 uM): 1.05
- Wnt reporter firefly/Renilla luciferase ratio (concentration: 1 uM): 1.17
- Wnt reporter firefly/Renilla luciferase ratio (concentration: 10 uM): 1.21
- Wnt reporter firefly/Renilla luciferase ratio (concentration: 100 uM): 1.24

SMILES: CCCOc1nn(C(=O)[N-]S(=O)(=O)c2ccccc2C(=O)OC)c(=O)n1C.[Na+] [Propoxycarbazone-sodium]
- Wnt reporter firefly/Renilla luciferase ratio (concentration: 0.01 uM): 0.752
- Wnt reporter firefly/Renilla luciferase ratio (concentration: 0.1 uM): 0.992
- Wnt reporter firefly/Renilla luciferase ratio (concentration: 1 uM): 1.07
- Wnt reporter firefly/Renilla luciferase ratio (concentration: 10 uM): 1.13
- Wnt reporter firefly/Renilla luciferase ratio (concentration: 100 uM): 1.45

SMILES: O=S(=O)(O)C(F)(F)C(F)(F)C(F)(F)C(F)(F)C(F)(F)C(F)(F)C(F)(F)C(F)(F)F
- Wnt reporter firefly/Renilla luciferase ratio (concentration: 0.01 uM): 1.2
- Wnt reporter firefly/Renilla luciferase ratio (concentration: 0.1 uM): 1.09
- Wnt reporter firefly/Renilla luciferase ratio (concentration: 1 uM): 1.07
- Wnt reporter firefly/Renilla luciferase ratio (concentration: 10 uM): 1.06
- Wnt reporter firefly/Renilla luciferase ratio (concentration: 100 uM): 1.23

SMILES: Cc1ccccc1[N+](=O)[O-] [2-Nitrotoluene]
- Wnt reporter firefly/Renilla luciferase ratio (concentration: 0.1 uM): 0.749
- Wnt reporter firefly/Renilla luciferase ratio (concentration: 1 uM): 0.924
- Wnt reporter firefly/Renilla luciferase ratio (concentration: 10 uM): 0.773
- Wnt reporter firefly/Renilla luciferase ratio (concentration: 100 uM): 1.02

SMILES: Nn1cnnc1 [4-Amino-1,2,4-triazole]
- Wnt reporter firefly/Renilla luciferase ratio (concentration: 0.1 uM): 1.22
- Wnt reporter firefly/Renilla luciferase ratio (concentration: 1 uM): 0.928
- Wnt reporter firefly/Renilla luciferase ratio (concentration: 10 uM): 1.27
- Wnt reporter firefly/Renilla luciferase ratio (concentration: 100 uM): 1.43

SMILES: CC1(C)CON(Cc2ccccc2Cl)C1=O [Clomazone]
- Wnt reporter firefly/Renilla luciferase ratio (concentration: 0.01 uM): 0.899
- Wnt reporter firefly/Renilla luciferase ratio (concentration: 0.1 uM): 0.906
- Wnt reporter firefly/Renilla luciferase ratio (concentration: 1 uM): 0.976
- Wnt reporter firefly/Renilla luciferase ratio (concentration: 10 uM): 1
- Wnt reporter firefly/Renilla luciferase ratio (concentration: 100 uM): 0.762

SMILES: C1CC2OC2CC1C1CO1 (stereo not given) [4-Vinyl-1-cyclohexene dioxide]
- Wnt reporter firefly/Renilla luciferase ratio (concentration: 0.1 uM): 0.954
- Wnt reporter firefly/Renilla luciferase ratio (concentration: 1 uM): 0.902
- Wnt reporter firefly/Renilla luciferase ratio (concentration: 10 uM): 0.885
- Wnt reporter firefly/Renilla luciferase ratio (concentration: 100 uM): 0.66

SMILES: Cc1cccc(N)c1N [2,3-Diaminotoluene]
- Wnt reporter firefly/Renilla luciferase ratio (concentration: 0.1 uM): 1.12
- Wnt reporter firefly/Renilla luciferase ratio (concentration: 1 uM): 1.4
- Wnt reporter firefly/Renilla luciferase ratio (concentration: 10 uM): 1.43
- Wnt reporter firefly/Renilla luciferase ratio (concentration: 100 uM): 0.698

SMILES: Cc1ccc(N)c(N)c1 [3,4-Diaminotoluene]
- Wnt reporter firefly/Renilla luciferase ratio (concentration: 0.1 uM): 1.18
- Wnt reporter firefly/Renilla luciferase ratio (concentration: 1 uM): 1.26
- Wnt reporter firefly/Renilla luciferase ratio (concentration: 10 uM): 1.2

SMILES: c1ccc2c(c1)-c1cccc3cccc-2c13 [Fluoranthene]
- Wnt reporter firefly/Renilla luciferase ratio (concentration: 0.1 uM): 1.24
- Wnt reporter firefly/Renilla luciferase ratio (concentration: 1 uM): 0.9
- Wnt reporter firefly/Renilla luciferase ratio (concentration: 10 uM): 1.06
- Wnt reporter firefly/Renilla luciferase ratio (concentration: 100 uM): 1.09

SMILES: COCC(C)N(C(=O)CCl)c1c(C)csc1C (stereo not given) [Dimethenamid]
- Wnt reporter firefly/Renilla luciferase ratio (concentration: 0.01 uM): 1.49
- Wnt reporter firefly/Renilla luciferase ratio (concentration: 0.1 uM): 1.58
- Wnt reporter firefly/Renilla luciferase ratio (concentration: 1 uM): 1.07
- Wnt reporter firefly/Renilla luciferase ratio (concentration: 10 uM): 1.21
- Wnt reporter firefly/Renilla luciferase ratio (concentration: 100 uM): 0.568

SMILES: Cc1ccc(-c2c(Cl)nc(C#N)n2S(=O)(=O)N(C)C)cc1 [Cyazofamid]
- Wnt reporter firefly/Renilla luciferase ratio (concentration: 0.01 uM): 1.17
- Wnt reporter firefly/Renilla luciferase ratio (concentration: 0.1 uM): 1.4
- Wnt reporter firefly/Renilla luciferase ratio (concentration: 1 uM): 1.07
- Wnt reporter firefly/Renilla luciferase ratio (concentration: 10 uM): 0.975

SMILES: CCNS(=O)(=O)C(F)(F)C(F)(F)C(F)(F)C(F)(F)C(F)(F)C(F)(F)C(F)(F)C(F)(F)F [Sulfluramid]
- Wnt reporter firefly/Renilla luciferase ratio (concentration: 0.1 uM): 1.02
- Wnt reporter firefly/Renilla luciferase ratio (concentration: 1 uM): 1.56
- Wnt reporter firefly/Renilla luciferase ratio (concentration: 10 uM): 1.38
- Wnt reporter firefly/Renilla luciferase ratio (concentration: 100 uM): 1.39

SMILES: CNC(=O)ON=C(C)SC [Methomyl]
- Wnt reporter firefly/Renilla luciferase ratio (concentration: 0.01 uM): 0.847
- Wnt reporter firefly/Renilla luciferase ratio (concentration: 0.1 uM): 1.08
- Wnt reporter firefly/Renilla luciferase ratio (concentration: 1 uM): 1.03
- Wnt reporter firefly/Renilla luciferase ratio (concentration: 10 uM): 0.996
- Wnt reporter firefly/Renilla luciferase ratio (concentration: 100 uM): 1.19
